Measured values: patent US20100099614A1, “Antimicrobial Peptides and Methods of Use” (priority 2008, published 2010)
Part of at least one peptide drawing is inferred or uncertain, most often the ends. Some results were stated once for a whole list of compounds, not compound by compound.

Legend:
[1] = Helical structure by circular dichroism spectroscopy; assay type: physicochemical; conditions: 100 mM KCl, 50 mM aq. PO4, pH 7
Method: The mean residue molar ellipticities of peptides were determined by circular dichroism (CD) spectroscopy, using a Jasco J-810 spectropolarimeter (Easton, Md.) at 5° C. under benign (non-denaturing) conditions (50 mM NaH2PO4/Na2HPO4/100 mM KCl, pH 7.0), hereafter referred to as benign buffer, as well as in the presence of an α-helix inducing solvent, 2,2,2-trifluoroethanol, TFE, (50 mM NaH2PO4/Na2HPO4/[…], pH 7.0 buffer/50% TFE). A 10-fold dilution of an approximately […] stock solution of the peptide analogs was loaded into a 0.1 cm quartz cell and its ellipticity scanned from 195 to 250 nm. The values of molar ellipticities of the peptide analogs at a wavelength of 222 nm were used to estimate the relative α-helicity of the peptides.

[2] = Peptide hydrophobicity by RP-HPLC retention; assay type: physicochemical; conditions: 80° C., non-polar face substitution
Method: Peptide Synthesis and Purification—Syntheses of the peptides were carried out by solid-phase peptide synthesis using t-butyloxycarbonyl chemistry and MBHA (4-methylbenzhydrylamine) resin (0.97 mmol/g), followed by cleavage of the peptide from the resin as described previously (117-119). However, it is understood in the art that there are other suitable instruments and methods for automated or manual peptide synthesis that could be employed to produce the peptides described herein. Peptide purification was performed by reversed-phase high-performance liquid chromatography (RP-HPLC) on a Zorbax 300 SB-C8 column (250×9.4 mm I.D.; 6.5 μm particle size, 300 Å pore size; Agilent Technologies, Little Falls, Del.) with a linear AB gradient (0.1% acetonitrile/min) at a flow rate of 2 mL/min, where eluent A was 0.2% aqueous trifluoroacetic acid (TFA), pH 2, and eluent B was 0.2% TFA in acetonitrile, where the shallow 0.1% acetonitrile/min gradient started 12% below the acetonitrile concentration required to elute the peptide on injection of analytical sample using a gradient of 1% acetonitrile/min (113). […] Crude and purified peptides were analyzed on an Agilent 1100 series liquid chromatograph. […]
Analytical RP-HPLC of Peptides—Peptides were analyzed on an Agilent 1100 series liquid chromatograph (Little Falls, Del.). […]

Substance	[θ]222 in benign conditions [1]	change in hydrophobicity (RP-HPLC retention) relative to NVL [2]
Ac-KWKSFLKTFKSALKTVLHTALKAISS-NH2 [NLL]	−20,600	–
Ac-KWKSFLKTFKSAAKTVLHTALKAISS-NH2 [NAL]	−1,300 to −3,450	-4.45 min
NSL: V681 analog, L-Ser at position 13 (non-polar face) (KWKSFLKTFKSASKTVLHTALKAISS)	−1,300 to −3,450	–
NG: V681 analog, Gly at position 13 (KWKSFLKTFKSAGKTVLHTALKAISS)	−1,300 to −3,450	–
